# From the supplement of paper PMC8728848
# Some of the results follow.
# B1: PX9961M-bvu-482-23-482 (Bacteroides vulgatus) (protein)
# chain: WLDLAPSTQVDTETSINVLSDIEFTLNGIYSTMQSSDAYSGRLVYYGDVTGDDMQAVSSTKRTGNYYRFNFTKDNGPSSHWSYLYSIIQNCNLILMNVDKLSIDEDETEYKNDLKGQALAIRGMALFDLTRIFGYPYLKDNGASLGVPIVKELSTIDSKPARNTVAECYTEIISDLKNSTELLSGDFNKGKVNRWAAMTLLSRVYLYKGEYNEALTMAENAIKGAEKEGYALWTNEEYPTAWGNDASASNPGEILFEIVNLTTDSPGKESMGYLNSYNGYDDMCITCSFYQLLKKDPKDVRLKILSFDKKYYAYVNKYQPQQGENITDANIPLIRLSEAYLNAAEAAVQTGDNAKAVKYLNSIVQRANPENSVEGKTLTLENVLDERRKELVAEGHRMYDVIRNGMTVKRIDVKDSDINKTKHNTAYMEYDWNFHKILLPIPKKEMDANPNMKQNPGYVD
# Assays:
# Assay in all cases: glycan array binding signal (z-score within array); higher = stronger binding
# Settings in all cases: glycan notation: IUPAC condensed, linker removed
# [1] = target: Neu5Ac(a2-3)Gal(b1-4)GlcNAc(b1-6)GalNAc
# Outline: (§1)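 Glycan array binding is given as a within-array Z-score, which can be read as non-binding when negative. The arrays, 3228 of them, came from the Consortium for Functional Glycomics database and were retained only where the protein sequence was available. Z-scores were averaged across arrays of the same protein sequence at different concentrations or buffers and across linkers.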
# [2] = target: Neu5Ac(a2-3)Gal(b1-4)GlcNAc(b1-6)[Gal(b1-3)]GalNAc
# Outline: as §1
# [3] = target: Neu5Ac(a2-3)Gal(b1-4)GlcNAc(b1-6)[Neu5Ac(a2-3)Gal(b1-3)]GalNAc
# Outline: as §1
# [4] = target: Neu5Ac(a2-3)Gal(b1-4)GlcNAc6S
# Outline: as §1
# [5] = target: Neu5Ac(a2-3)Gal(b1-4)[Fuc(a1-3)]GlcNAc
# Outline: as §1
# [6] = target: Neu5Ac(a2-3)Gal(b1-4)[Fuc(a1-3)]GlcNAc(b1-2)Man
# Outline: as §1
# [7] = target: Neu5Ac(a2-3)Gal(b1-4)[Fuc(a1-3)]GlcNAc(b1-3)Gal
# Outline: as §1
# [8] = target: Neu5Ac(a2-3)Gal(b1-4)[Fuc(a1-3)]GlcNAc(b1-3)Gal(b1-4)GlcNAc
# Outline: as §1
# [9] = target: Neu5Ac(a2-3)Gal(b1-4)[Fuc(a1-3)]GlcNAc(b1-3)Gal(b1-4)[Fuc(a1-3)]GlcNAc(b1-3)Gal(b1-4)[Fuc(a1-3)]GlcNAc
# Outline: as §1
# [10] = target: Neu5Ac(a2-3)Gal(b1-4)[Fuc(a1-3)]GlcNAc(b1-3)GalNAc
# Outline: as §1
# [11] = target: Neu5Ac(a2-3)Gal(b1-4)[Fuc(a1-3)]GlcNAc(b1-6)[Gal(b1-3)]GalNAc
# Outline: as §1
# [12] = target: Neu5Ac(a2-3)Gal(b1-4)[Fuc(a1-3)]GlcNAc(b1-6)[Neu5Ac(a2-3)Gal(b1-3)]GalNAc
# Outline: as §1
# [13] = target: Neu5Ac(a2-3)Gal(b1-4)[Fuc(a1-3)]GlcNAc6S
# Outline: as §1
# [14] = target: Neu5Ac(a2-3)Gal6S(b1-4)GlcNAc
# Outline: as §1
# [15] = target: Neu5Ac(a2-3)Gal6S(b1-4)[Fuc(a1-3)]GlcNAc
# Outline: as §1
# [16] = target: Neu5Ac(a2-3)GalNAc
# Outline: as §1
# [17] = target: Neu5Ac(a2-3)GalNAc(b1-4)GlcNAc
# Outline: as §1
# [18] = target: Neu5Ac(a2-3)[GalNAc(b1-4)]Gal(b1-4)Glc
# Outline: as §1
# [19] = target: Neu5Ac(a2-3)[GalNAc(b1-4)]Gal(b1-4)GlcNAc
# Outline: as §1
# [20] = target: Neu5Ac(a2-3)[GalNAc(b1-4)]Gal(b1-4)GlcNAc(b1-3)GalNAc
# Outline: as §1
# [21] = target: Neu5Ac(a2-3)[Neu5Ac(a2-6)]GalNAc
# Outline: as §1
# [22] = target: Neu5Ac(a2-6)Gal
# Outline: as §1
# [23] = target: Neu5Ac(a2-6)Gal(b1-3)GlcNAc(b1-3)[Gal(b1-4)GlcNAc(b1-6)]Gal(b1-4)Glc
# Outline: as §1
# [24] = target: Neu5Ac(a2-6)Gal(b1-4)Glc
# Outline: as §1
# [25] = target: Neu5Ac(a2-6)Gal(b1-4)GlcNAc
# Outline: as §1
# [26] = target: Neu5Ac(a2-6)Gal(b1-4)GlcNAc(b1-2)Man
# Outline: as §1
# [27] = target: Neu5Ac(a2-6)Gal(b1-4)GlcNAc(b1-2)Man(a1-3)Man(b1-4)GlcNAc(b1-4)GlcNAc
# Outline: as §1
# [28] = target: Neu5Ac(a2-6)Gal(b1-4)GlcNAc(b1-2)Man(a1-3)[Gal(b1-4)GlcNAc(b1-2)Man(a1-6)]Man(b1-4)GlcNAc(b1-4)GlcNAc
# Outline: as §1
# [29] = target: Neu5Ac(a2-6)Gal(b1-4)GlcNAc(b1-2)Man(a1-3)[GlcNAc(b1-2)Man(a1-6)]Man(b1-4)GlcNAc(b1-4)GlcNAc
# Outline: as §1
# [30] = target: Neu5Ac(a2-6)Gal(b1-4)GlcNAc(b1-2)Man(a1-3)[GlcNAc(b1-4)][Neu5Ac(a2-6)Gal(b1-4)GlcNAc(b1-2)Man(a1-6)]Man(b1-4)GlcNAc(b1-4)GlcNAc
# Outline: as §1
# [31] = target: Neu5Ac(a2-6)Gal(b1-4)GlcNAc(b1-2)Man(a1-3)[Man(a1-6)]Man(b1-4)GlcNAc(b1-4)GlcNAc
# Outline: as §1
binder,measurement,setting,value
B1,glycan array binding signal (z-score),[1],0.396
same,glycan array binding signal (z-score),[2],0.468
same,glycan array binding signal (z-score),[3],-0.693
same,glycan array binding signal (z-score),[4],-0.697
same,glycan array binding signal (z-score),[5],-0.48
same,glycan array binding signal (z-score),[6],-0.837
same,glycan array binding signal (z-score),[7],-0.041
same,glycan array binding signal (z-score),[8],-0.063
same,glycan array binding signal (z-score),[9],0.485
same,glycan array binding signal (z-score),[10],0.703
same,glycan array binding signal (z-score),[11],-0.329
same,glycan array binding signal (z-score),[12],0.32
same,glycan array binding signal (z-score),[13],0.572
same,glycan array binding signal (z-score),[14],0.074
same,glycan array binding signal (z-score),[15],-0.793
same,glycan array binding signal (z-score),[16],-0.65
same,glycan array binding signal (z-score),[17],0.171
same,glycan array binding signal (z-score),[18],0.405
same,glycan array binding signal (z-score),[19],-0.289
same,glycan array binding signal (z-score),[20],0.696
same,glycan array binding signal (z-score),[21],-0.188
same,glycan array binding signal (z-score),[22],0.409
same,glycan array binding signal (z-score),[23],0.884
same,glycan array binding signal (z-score),[24],0.133
same,glycan array binding signal (z-score),[25],0.329
same,glycan array binding signal (z-score),[26],-0.674
same,glycan array binding signal (z-score),[27],-0.834
same,glycan array binding signal (z-score),[28],0.004
same,glycan array binding signal (z-score),[29],-0.203
same,glycan array binding signal (z-score),[30],-0.588
same,glycan array binding signal (z-score),[31],-0.014

# 2 entries drawn at random from the list so far, as already listed:
binder,measurement,setting,value
B1,glycan array binding signal (z-score),[18],0.405
same,glycan array binding signal (z-score),[24],0.133
